The values that follow come from patent publication US20230172897A1, “METHODS OF TREATING BREAST CANCERS WITH SELECTIVE ANDROGEN RECEPTOR MODULATORS AND ADDITIONAL THERAPEUTIC AGENTS” (VERU, INC., priority 2021, published 2023).

Sequences of proteins named here, by UniProt entry; tags and fusion partners are left off. Residues count along the entry.
UniProt P10275: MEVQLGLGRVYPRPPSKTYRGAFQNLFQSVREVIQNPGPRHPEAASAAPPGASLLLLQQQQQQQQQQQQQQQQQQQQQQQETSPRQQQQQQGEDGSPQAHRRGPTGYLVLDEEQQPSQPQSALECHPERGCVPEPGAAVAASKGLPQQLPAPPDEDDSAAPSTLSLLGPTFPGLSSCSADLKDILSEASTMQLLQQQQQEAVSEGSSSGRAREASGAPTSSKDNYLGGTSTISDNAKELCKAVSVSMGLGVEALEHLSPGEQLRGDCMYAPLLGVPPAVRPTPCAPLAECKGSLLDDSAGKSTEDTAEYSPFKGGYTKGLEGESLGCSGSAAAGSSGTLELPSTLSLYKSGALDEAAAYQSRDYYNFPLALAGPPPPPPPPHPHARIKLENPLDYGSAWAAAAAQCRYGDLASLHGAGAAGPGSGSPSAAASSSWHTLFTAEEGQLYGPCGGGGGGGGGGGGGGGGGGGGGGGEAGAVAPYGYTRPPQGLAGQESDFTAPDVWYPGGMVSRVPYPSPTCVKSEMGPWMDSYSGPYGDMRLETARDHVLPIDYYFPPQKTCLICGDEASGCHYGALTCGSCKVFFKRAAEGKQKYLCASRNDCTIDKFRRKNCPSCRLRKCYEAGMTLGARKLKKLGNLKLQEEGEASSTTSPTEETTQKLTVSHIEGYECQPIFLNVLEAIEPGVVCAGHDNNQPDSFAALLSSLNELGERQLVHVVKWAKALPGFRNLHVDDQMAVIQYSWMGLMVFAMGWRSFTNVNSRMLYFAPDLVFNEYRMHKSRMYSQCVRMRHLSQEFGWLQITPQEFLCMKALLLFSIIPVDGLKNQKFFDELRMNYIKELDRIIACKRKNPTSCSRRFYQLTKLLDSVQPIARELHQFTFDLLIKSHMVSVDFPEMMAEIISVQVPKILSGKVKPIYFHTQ
UniProt Q15788, residues 2-1441: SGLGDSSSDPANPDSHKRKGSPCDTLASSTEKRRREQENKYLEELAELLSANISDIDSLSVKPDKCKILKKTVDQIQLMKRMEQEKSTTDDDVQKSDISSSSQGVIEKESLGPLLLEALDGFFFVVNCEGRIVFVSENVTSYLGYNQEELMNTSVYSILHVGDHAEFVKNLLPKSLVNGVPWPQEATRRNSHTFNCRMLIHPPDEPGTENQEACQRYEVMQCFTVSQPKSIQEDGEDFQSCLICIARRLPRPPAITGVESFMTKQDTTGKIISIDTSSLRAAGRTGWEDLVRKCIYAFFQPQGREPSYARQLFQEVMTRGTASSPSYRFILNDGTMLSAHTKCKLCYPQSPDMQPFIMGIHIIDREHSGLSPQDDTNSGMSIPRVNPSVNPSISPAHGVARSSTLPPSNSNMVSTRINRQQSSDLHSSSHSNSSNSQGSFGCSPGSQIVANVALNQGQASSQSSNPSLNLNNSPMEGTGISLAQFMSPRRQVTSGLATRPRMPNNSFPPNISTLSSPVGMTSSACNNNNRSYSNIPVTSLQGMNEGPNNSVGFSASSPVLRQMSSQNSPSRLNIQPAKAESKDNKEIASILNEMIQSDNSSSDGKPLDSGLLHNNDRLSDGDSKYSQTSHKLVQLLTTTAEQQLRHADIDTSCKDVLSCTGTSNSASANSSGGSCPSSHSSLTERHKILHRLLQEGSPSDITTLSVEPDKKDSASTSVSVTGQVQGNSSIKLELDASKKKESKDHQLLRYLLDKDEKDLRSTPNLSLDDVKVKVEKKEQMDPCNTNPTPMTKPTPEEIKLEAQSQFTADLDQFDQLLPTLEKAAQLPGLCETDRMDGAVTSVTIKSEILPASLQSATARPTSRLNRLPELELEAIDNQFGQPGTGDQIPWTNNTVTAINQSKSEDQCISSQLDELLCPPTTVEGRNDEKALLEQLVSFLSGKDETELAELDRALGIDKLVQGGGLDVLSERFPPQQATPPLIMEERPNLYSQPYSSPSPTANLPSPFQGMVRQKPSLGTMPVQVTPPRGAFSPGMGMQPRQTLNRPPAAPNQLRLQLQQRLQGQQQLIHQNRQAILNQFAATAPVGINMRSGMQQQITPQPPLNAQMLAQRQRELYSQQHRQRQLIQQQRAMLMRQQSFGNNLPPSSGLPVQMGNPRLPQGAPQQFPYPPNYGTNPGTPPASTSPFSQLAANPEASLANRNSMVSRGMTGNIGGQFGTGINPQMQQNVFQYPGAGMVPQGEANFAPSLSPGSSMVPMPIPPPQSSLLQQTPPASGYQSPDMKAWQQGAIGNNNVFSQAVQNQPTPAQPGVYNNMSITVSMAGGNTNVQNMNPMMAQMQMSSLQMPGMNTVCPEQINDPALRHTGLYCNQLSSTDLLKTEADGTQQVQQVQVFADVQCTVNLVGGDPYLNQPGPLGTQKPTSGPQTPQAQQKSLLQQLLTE

The target in test [1] is androgen receptor (human (patient-derived xenograft HCI-13)) (UniProt P10275). Kind of test: co-immunoprecipitation with AR antibody from HCI-13 tumor extracts, Western blot for SRC-1 (legend of FIG. 38G).
Test [2] shares this target. Put plainly: co-immunoprecipitation with AR antibody from HCI-13 tumor extracts (vehicle or Formula IX), Western blot for SRC-1.

These are yes or no findings as the source states them, for the method shown. Binding seen in cells or lysates may run through a third protein. Some results given as binding are weak or reduced against the parent protein; the word gives no strength.

Turning to “steroid receptor coactivator-1 (from UniProt Q15788 2-1441)”, the binding entry in test [1] and in test [2] was “binds” throughout.
